Results deposited as PubChem BioAssay AID602196 (INSERM, 2012).
Test: 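Knock-downs that protect lung cancer cells from cisplatin or sensitise them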. System: human A549 lung cancer cells. Reagents: siRNA pair against human genes. Timing: 48 h transfection before cisplatin; time from cisplatin to read-out not stated. Treatment: cisplatin at a dose killing half of control-siRNA cells; exact dose and duration not given. Detection: 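Cisplatin cell death as a shift from the 50% death seen with control siRNA; siRNAs toxic or growth-blocking alone scored 0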. Direction: two-siRNA summed score (-2 to +2): higher = both siRNAs protect from cisplatin killing; -2 means both sensitise; mean protection from cisplatin (shift in death) and protection from cisplatin (shift in death), siRNA C and protection from cisplatin (shift in death), siRNA D: higher = protection from cisplatin killing. Call rule: 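siRNAs harmful alone (LDH or WST-1) get 0; others get +1 for less and -1 for more cisplatin killing; genes are active when the two siRNAs give the same sign, summing to ±2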. Meaning of the calls: active = both siRNAs shift cisplatin killing the same way; inactive = no consistent shift, or siRNA harmful alone.
Shown is an unselected part of about 23,000 reagents. 455 of them (2%) were called active. 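Active includes both protection and sensitisation; some change values fall well beyond the stated -50 to +50 range.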 Not given: the amount of reagent.

Gene,two-siRNA summed score (-2 to +2),mean protection from cisplatin (shift in death) (%),"protection from cisplatin (shift in death), siRNA C (%)","protection from cisplatin (shift in death), siRNA D (%)",Outcome
OR1N1 (olfactory receptor family 1 subfamily N member 1),0,12.2,2.4,21.9,inactive
OR8K3,0,7.9,6.7,9.1,inactive
TMCO5A (transmembrane and coiled-coil domains 5A),1,12.8,20.7,4.9,inactive
KCNK15 (potassium two pore domain channel subfamily K member 15),0,-10.7,-19.2,-2.3,inactive
CGGBP1 (CGG triplet repeat binding protein 1),1,21.7,12.1,31.3,inactive
RPL27 (ribosomal protein L27),0,16.9,13.1,20.8,inactive
TRPC6,0,-11.7,-29.8,6.4,inactive
IGFBP4 (insulin like growth factor binding protein 4),0,6.8,-5.7,19.4,inactive
PEX7 (peroxisomal biogenesis factor 7),-1,-23.5,-26.7,-20.3,inactive
LINC01096 (long independently transcribed non-coding RNA 1096),0,13,16.3,9.6,inactive
SDCBP2 (syndecan binding protein 2),0,6,2.8,9.1,inactive
TMEM53 (transmembrane protein 53),1,7.2,-5.6,20.1,inactive
ZNF446 (zinc finger protein 446),0,6.4,-1.4,14.3,inactive
CAND2 (cullin associated and neddylation dissociated 2 (putative)),0,4.2,13.4,-5.1,inactive
ZNF501 (zinc finger protein 501),1,10.4,13.2,7.7,inactive
HAUS2 (HAUS augmin like complex subunit 2),0,6.7,0.6,12.9,inactive
LOC441015,0,-0.8,2.9,-4.6,inactive
"TBC1D29P (TBC1 domain family member 29, pseudogene)",0,12.4,10.1,14.6,inactive
LOC440524,1,9.3,2,16.5,inactive
GZMM (granzyme M),0,-16.5,2.8,-35.8,inactive
PCSK6 (proprotein convertase subtilisin/kexin type 6),0,-4.8,-3.3,-6.3,inactive
LOC391609,1,5.7,-3.1,14.5,inactive
LOC400712,1,13.7,20.2,7.2,inactive
LOC441776,1,15.8,14.5,17.1,inactive
TRIM54 (tripartite motif containing 54),0,13.3,6.2,20.3,inactive
NTAN1 (N-terminal asparagine amidase),0,6,4.5,7.5,inactive
IRF4 (interferon regulatory factor 4),-1,-12.5,-0.5,-24.4,inactive
LOC440869,0,6.7,5.8,7.6,inactive
NRXN2 (neurexin 2),0,-5,-6.9,-3,inactive
RAD17 (RAD17 checkpoint clamp loader component),0,-3.3,-0.2,-6.3,inactive
HIKESHI (heat shock protein nuclear import factor hikeshi),0,3.3,8.3,-1.7,inactive
WDR86 (WD repeat domain 86),-1,-6.9,-15.6,1.9,inactive
C11orf58 (chromosome 11 open reading frame 58),0,11.7,9.5,14,inactive
PDCD6IP (programmed cell death 6 interacting protein),-1,-7,7.1,-21.1,inactive
CLOCK (clock circadian regulator),0,-3.5,-5.7,-1.2,inactive
"ST8SIA6 (ST8 alpha-N-acetyl-neuraminide alpha-2,8-sialyltransferase 6)",1,10.8,8.2,13.5,inactive
"HLA-DMB (major histocompatibility complex, class II, DM beta)",0,8.6,14.6,2.6,inactive
LOC441347 (retired record),0,11.1,14.9,7.3,inactive
CD36 (CD36 molecule (CD36 blood group)),0,7.7,7.5,7.9,inactive
FAM131C (family with sequence similarity 131 member C),0,5.3,6.4,4.1,inactive
LOC100288254,1,3,-10.5,16.5,inactive
DMXL2 (Dmx like 2),0,5.2,4.8,5.7,inactive
LOC440971,0,3.7,-5.9,13.3,inactive
LOC389888,0,15.2,19.4,10.9,inactive
BABAM2 (BRISC and BRCA1 A complex member 2),0,8.2,6.8,9.6,inactive
TRIM9 (tripartite motif containing 9),0,15.4,11.7,19.1,inactive
ARRDC4 (arrestin domain containing 4),0,-2,-0.2,-3.7,inactive
ZCCHC12 (zinc finger CCHC-type containing 12),0,3.8,6,1.6,inactive
DUS2 (dihydrouridine synthase 2),0,0,5.3,-5.2,inactive
ISM1 (isthmin 1),0,6,10.7,1.3,inactive
LOC132556,0,4.2,6.1,2.3,inactive
ATL2 (atlastin GTPase 2),0,0.1,-3.5,3.7,inactive
TSLIG3C (tRNA splicing ligase complex subunit 3C),0,3.5,-0.2,7.2,inactive
LOC58489,0,6.1,6.1,6.2,inactive
UBE2H (ubiquitin conjugating enzyme E2 H),0,11.6,14.6,8.5,inactive
SLC30A4,0,4.3,9.3,-0.6,inactive
WWP2 (WW domain containing E3 ubiquitin protein ligase 2),0,-9.2,-5.3,-13,inactive
MDP1 (magnesium dependent phosphatase 1),0,-0.8,-3.4,1.8,inactive
PLEKHO1 (pleckstrin homology domain containing O1),0,-6.9,-4.3,-9.5,inactive
LOC440512,1,11.2,14.9,7.5,inactive
PACSIN3 (protein kinase C and casein kinase substrate in neurons 3),1,18.7,29.5,7.9,inactive
LOC401495,0,13.1,12.8,13.3,inactive
"ABHD10 (abhydrolase domain containing 10, depalmitoylase)",1,18.7,20.3,17.1,inactive
IFNA1 (interferon alpha 1),0,-8.6,-16.3,-0.9,inactive
TLR7 (toll like receptor 7),0,-7.8,-23.2,7.6,inactive
KRTAP13-3 (keratin associated protein 13-3),0,9.4,12.6,6.3,inactive
RANBP2 (RAN binding protein 2),-1,-7.6,-17.5,2.3,inactive
GNG12 (G protein subunit gamma 12),0,-7.3,5,-19.5,inactive
BMPER (BMP binding endothelial regulator),0,6.8,4.5,9.2,inactive
POMP (proteasome maturation protein),0,12.7,12.2,13.1,inactive
DKFZP564I122,0,2.6,-8.3,13.5,inactive
PSMB3 (proteasome 20S subunit beta 3),0,20.9,24.1,17.7,inactive
LOC100506459,1,0.6,-10.2,11.5,inactive

Part of the list above, set out differently:
| Gene | two-siRNA summed score (-2 to +2) | mean protection from cisplatin (shift in death) (%) | protection from cisplatin (shift in death), siRNA C (%) | protection from cisplatin (shift in death), siRNA D (%) | Outcome |
| --- | --- | --- | --- | --- | --- |
| NTAN1 (N-terminal asparagine amidase) | 0 | 6 | 4.5 | 7.5 | inactive |
| IRF4 (interferon regulatory factor 4) | -1 | -12.5 | -0.5 | -24.4 | inactive |
| LOC440869 | 0 | 6.7 | 5.8 | 7.6 | inactive |
| NRXN2 (neurexin 2) | 0 | -5 | -6.9 | -3 | inactive |
| RAD17 (RAD17 checkpoint clamp loader component) | 0 | -3.3 | -0.2 | -6.3 | inactive |
